In PubChem BioAssay AID2685 (National Center for Advancing Translational Sciences (NCATS), 2010) one finds cell number change and AC50 data, which are given here for 61 compounds.

The AC50 is the concentration at which the activity in the assay is half-maximal. The low end stands for greater potency, the high end for weaker potency.

The other results are listed elsewhere or left out. These are further read-outs of the screen, such as a control signal, another cell line or another target. No call is given for them. The list favours compounds with an active or inconclusive main result. Potencies come from curve fits of mixed quality, noted in brackets. Where a SMILES comes first, the peptide text is derived from it. The star is where a group is joined. Boc = CC(C)(C)OC(=O)*; OtBu = CC(C)(C)O*

The assay can be described thus: qHTS Assay for Lipid Storage Modulators in Drosophila S3 Cells.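 On cell number change: cells counted by Cell Tracker Red CMTPX staining in the red channel.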 The conditions noted are these: BODIPY lipid droplet fluorescence, 18-24 h; for cell number change: measured here: cell count max response, cells fed with added oleic acid. The essentials:
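Drosophila S3 cells loaded with oleic acid (400 uM, as added) and compounds at several concentrations; lipid droplets imaged by 488-nm laser-scanning cytometry, 500–530 nm intensity and object ratio to cell channel. Percent activity normalized to 20 uM Triacsin C.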
For orientation: qHTS replaces the single test concentration by a dilution series.

The mark [1] stands for this setting: measured here: lipid fluorescence (Fed channel) AC50, cells fed with added oleic acid.
Where [2] appears, read: measured here: cell number channel AC50, cells fed with added oleic acid.

Take `C/C(=N\NC(=O)C(=O)Nc1c(C)n(C)n(-c2ccccc2)c1=O)c1ccncc1`: the cell number change was -12%.

`Cc1ccc(NS(=O)(=O)c2cccc(C(=O)N3CCN(c4ncccn4)CC3)c2)cc1`: the cell number change was 2.8%. Also, the concentration at half-maximal activity (AC50) under setting [1] is 0.58 µM [rising, single point].

`CC1=NNC(=O)C1CC(=O)N/N=C(\C)c1ccco1` (stereo unspecified): under setting [1], the half-maximal activity concentration (AC50) is 4.11 µM [falling, single point].

As to `COc1ccc(CCNC(=O)c2ccc3nc(-c4ccco4)c(-c4ccco4)nc3c2)cc1OC`, under setting [1], the AC50 was 4.61 µM [falling, partial curve, poor fit].

Take `NS(=O)(=O)c1ccc(CNC(=O)c2ccccc2SCC(=O)N2CCCC2)cc1`: the cell number change is 15.8%. Besides, the AC50 under setting [1] was 29.1 µM [rising, single point].

As for `O=C(CCCCCNC(=S)Nc1ccc(Cl)cc1)C[N+](=O)[O-]`, under setting [1], the AC50 was 0.116 µM [falling, single point].

`O=S(=O)(/N=C/c1ccccc1O)c1cccs1`: the cell number change turned out to be 8.43%.

Regarding `COc1ccc(OC)c(NC(=O)C(C)SCc2nc3sc(C)c(C)c3c(=O)[nH]2)c1` (stereo unspecified), the cell number change was -13.1%. For the same compound, under setting [2], the AC50 is 6.51 µM [falling, single point]. Further, the AC50 under setting [1] is 5.17 µM [falling, single point].

As to `CN(Cc1ccccc1)C(=O)c1[nH]cnc1C(=O)Nc1ccc(Cl)cc1`, the cell number change is -64.2%. The AC50 under setting [2] was 25.9 µM [falling, single point].

Turning to `CCn1c(SC/C=C/c2ccccc2)nnc1-c1cnccn1`, the cell number change was 1.85%. Besides, the AC50 under setting [1] was 5.17 µM [rising, full curve].

In the case of `CN(C)c1ccnc(-n2cccc2/C=N/OCc2ccccc2)c1C#N`, the AC50 is, setting by setting: under setting [2], 2.31 µM [rising, partial curve]; under setting [1], 0.00411 µM [rising, full curve, poor fit].

Consider `O=C(CCSc1ccccc1)Nc1nccs1`, for which the cell number change stood at 17.5%. Further, under setting [1], the AC50 was 16.4 µM [rising, single point].

Regarding `O=C(COC(=O)c1ccccc1O)Nc1ncc(Cl)cc1Cl`, the cell number change is -10.7%. Besides, the half-maximal activity concentration (AC50) under setting [1] was 0.411 µM [rising, partial curve, poor fit].

Regarding `Cc1noc(C)c1COC(=O)c1ccc(F)c(S(=O)(=O)N2CCOCC2)c1`, the cell number change is 1%. In addition, the AC50 under setting [1] is 8.2 µM [rising, partial curve, poor fit].

Regarding `COc1ccc(CC(=O)NC2CCCc3ccccc32)cc1` (stereo unspecified), under setting [2], the half-maximal activity concentration (AC50) was 0.164 µM [falling, full curve, poor fit].

With `O=C(COc1ccccc1Br)Nc1ccccc1C(F)(F)F`, the cell number change was -32.5%. In addition, under setting [2], the AC50 was 29.1 µM [falling, single point].

As to `CSc1ccc(/C=C(/NC(=O)c2ccco2)C(=O)N2CCOCC2)cc1`, the cell number change is -10.8%.

Turning to `Cc1ccc(C)c(C(=O)CC2(O)C(=O)N(C)c3ccccc32)c1` (stereo unspecified), the cell number change was determined as 1.25%.

Consider `O=C(OCC(=O)C12CC3CC(CC(C3)C1)C2)c1cccnc1`, for which the cell number change is -19.6%.

For the compound `Cc1nn(-c2ccccc2)c(Cl)c1/C=N/NC(=O)c1nn(C)cc1[N+](=O)[O-]`, the cell number change was -57.8%. For the same compound, the half-maximal activity concentration (AC50) under setting [2] is 29.1 µM [falling, single point].

In the case of `COc1ccc(CNC(=O)c2cc(C3CC3)nc3c2cnn3C(C)C)cc1OC`, under setting [1], the concentration at half-maximal activity (AC50) is 10.3 µM [falling, partial curve].

On to `COc1ccc(CN2CCC(n3nccc3NC(=O)C3CCCC3)CC2)cc1`, for which the cell number change is 3.47%.

Regarding `COc1ccc(C(=O)Nc2ccccc2C)cc1S(=O)(=O)N1CCOCC1`, the cell number change worked out at 8.97%. Under setting [1], the AC50 is 0.13 µM [falling, partial curve, poor fit].

Take `c1cncc(-c2nn3c(Cn4cnc5ccccc54)nnc3s2)c1`: the concentration at half-maximal activity (AC50) reads like this: under setting [2], 2.06 µM [rising, partial curve]; under setting [1], 0.13 µM [rising, full curve, poor fit].

For the compound `CCOc1ccc(NC(=O)Cn2ncc3ccccc32)cc1`, the cell number change was determined as 27%.

As to `CN(Cc1ccccc1F)C(=O)c1ccc2c(=O)n3c(nc2c1)CCC3`, the cell number change was 33.7%. Besides, the concentration at half-maximal activity (AC50) under setting [2] was 11.6 µM [rising, partial curve].

Consider `CC(NC(=O)C(CC(=O)OC(C)(C)C)NC(=O)OC(C)(C)C)C(N)=O` (stereo unspecified) (Boc-Asp(OtBu)-Ala-NH2; configuration not given here), for which the cell number change was -35.2%. Under setting [2], the half-maximal activity concentration (AC50) was 4.11 µM [falling, full curve, poor fit]. The half-maximal activity concentration (AC50) under setting [1] was 4.61 µM [falling, full curve].

As to `CC(C)(C)NC(=O)C1CCN(C(=O)c2ccc(Br)cc2)CC1`, the cell number change was 11.1%.

On to `CCCSc1nnc(Cn2c(=O)sc3ccccc32)n1-c1ccccc1`, for which the cell number change was -8.34%.

`CCOC(=O)C1=C(CN2CCOCC2)NC(=O)NC1c1cccc([N+](=O)[O-])c1` (stereo unspecified): the cell number change is 12.6%. Further, under setting [1], the half-maximal activity concentration (AC50) is 6.51 µM [falling, single point].

As to `Cc1cccc(C)c1NC(=O)CN1N=NC2C(=O)N(c3cccc(Cl)c3)C(=O)C21` (stereo unspecified), the cell number change turned out to be 11.4%. Also, the AC50 under setting [1] is 0.00461 µM [falling, full curve, poor fit].

For `Cc1cc(C)c(S(=O)(=O)NCc2cn3c(C)csc3n2)c(C)c1`, the cell number change was -5.48%.

On to `Cc1cc(C)c2c(N)c(C(=O)c3ccc(Cl)cc3Cl)sc2n1`, for which the cell number change came to 22.6%. In addition, the AC50 under setting [1] was 1.84 µM [rising, partial curve].

For the compound `Cc1cccc(NC(=O)c2ccc(S(=O)(=O)N3CCC(C)CC3)cc2)n1`, the cell number change was -13.6%. Besides, the concentration at half-maximal activity (AC50) under setting [1] is 29.1 µM [falling, single point].

Consider `Cc1cc(=O)oc2cc(OCC(=O)N3CCN(C(=O)C4COc5ccccc5O4)CC3)c(Cl)cc12` (stereo unspecified), for which the cell number change is -22.9%.

In the case of `Fc1ccc(-c2cnc[nH]2)cc1`, the cell number change is 34.4%. Under setting [2], the AC50 is 11.6 µM [rising, single point].

As for `O=C(c1cccs1)c1ccc(-c2cccs2)s1`, the cell number change was -20.1%. The AC50 under setting [1] is 4.61 µM [falling, full curve, poor fit].

Turning to `Cc1ccc2nc(SCC(=O)NC3CCCC3)[nH]c2c1`, the AC50 under setting [1] is 3.26 µM [rising, partial curve].

Consider `COc1ccccc1N(CC(=O)NCc1ccccn1)S(C)(=O)=O`, for which the cell number change is -24.1%. Besides, the AC50 under setting [2] was 0.651 µM [falling, full curve]. Moreover, under setting [1], the half-maximal activity concentration (AC50) was 0.651 µM [falling, partial curve, poor fit].

Turning to `O=C1NC(c2ccco2)Nc2ccccc21` (stereo unspecified), the cell number change stood at 0.376%. Besides, the AC50 under setting [1] is 0.146 µM [falling, full curve, poor fit].

On to `Cc1cc(OCC(=O)OCC(=O)c2c(N)n(C)c(=O)n(C)c2=O)ccc1Cl`, for which the cell number change is -44.2%. In addition, the concentration at half-maximal activity (AC50) under setting [2] was 9.2 µM [falling, partial curve]. Further, the AC50 under setting [1] is 18.4 µM [falling, partial curve].

With `Cc1ccc(CNC(=O)C(C(=O)NCc2ccc(C)o2)c2ncc(C(F)(F)F)cc2Cl)o1`, the cell number change is -6.83%. Further, the half-maximal activity concentration (AC50) under setting [2] is 0.731 µM [falling, single point]. In addition, the half-maximal activity concentration (AC50) under setting [1] was 0.00461 µM [falling, full curve, poor fit].

With `Cc1ccc(C(=O)NNC(=O)CSc2nnc3c(n2)[nH]c2ccc(C)cc23)cc1`, the cell number change was -29.4%.

Take `Cc1cccc(CSc2nnnn2-c2ccccc2)c1`: the cell number change amounted to 83.1%. Moreover, the AC50 under setting [2] is 2.31 µM [rising, full curve]. Moreover, under setting [1], the half-maximal activity concentration (AC50) was 3.26 µM [rising, partial curve, poor fit].

Turning to `O=C(NCC1COc2ccccc2O1)c1cccs1` (stereo unspecified), the cell number change came out at 13.1%.

Consider `Cc1[nH]c2c(C(=O)N3CCCC(CCC(=O)NCc4ccccc4F)C3)cccc2c1C` (stereo unspecified), for which the cell number change was -13.2%. For the same compound, the AC50 under setting [1] was 29.1 µM [falling, single point].

Take `Cc1ccc2c(C)nc(/N=C(\N)NC(=O)N3c4ccccc4Sc4ccccc43)nc2c1`: the concentration at half-maximal activity (AC50) is, setting by setting: under setting [2], 1.16 µM [rising, partial curve]; under setting [1], 0.411 µM [rising, full curve].

For `CC(C)c1ccc(NC(=S)NC2CCN(Cc3ccccc3)CC2)cc1`, the cell number change is -22.4%. Besides, the half-maximal activity concentration (AC50) under setting [1] is 29.1 µM [falling, single point].

Take `Cc1nc(CCNS(=O)(=O)c2cccs2)cs1`: the cell number change stood at 20.3%. Moreover, the half-maximal activity concentration (AC50) under setting [1] was 29.1 µM [falling, single point].

Consider `Cn1cc(Cl)c(C(=O)Nc2cccc(Cl)c2Cl)n1`, for which the cell number change stood at 64.7%. Also, the AC50 under setting [2] is 29.1 µM [rising, single point].

On to `CCCCOc1ccc(/C(O)=C2/C(=O)C(=O)N(CCCOC)C2c2ccncc2)cc1` (stereo unspecified), for which the cell number change is 38.6%. For the same compound, the AC50 under setting [2] was 29.1 µM [rising, single point].

`CCOC(=O)c1sc2nc(CC(=O)OC)nc(NCc3ccc(F)cc3)c2c1C`: the cell number change was -12.4%. Moreover, the AC50 under setting [1] is 23.1 µM [falling, single point].

With `Cc1ccc(NC(=O)CSc2nnc(Cc3ccccc3)o2)c(C)c1`, the cell number change was 24.7%. Moreover, the AC50 under setting [1] is 18.4 µM [rising, single point].

For `COc1ccc(-c2nn(-c3ccccc3)cc2C(=O)Nc2ccc(C(=O)O)cc2)cc1`, the cell number change was 2.14%. For the same compound, the AC50 under setting [1] is 32.6 µM [falling, single point].

`CCC1Oc2ccccc2N(CC(=O)N2CCOCC2)C1=O` (stereo unspecified): the cell number change worked out at 34.7%. Further, the concentration at half-maximal activity (AC50) under setting [1] is 0.291 µM [rising, partial curve, poor fit].

`C/C(=N/NC(=O)CNC(=O)c1ccncc1)c1ccco1`: the cell number change was -0.13%. Also, the concentration at half-maximal activity (AC50) under setting [1] was 0.184 µM [falling, full curve, poor fit].

Take `Cc1cccc(C)c1NC(=O)CSc1nnc(-c2ccccc2)n1Cc1ccc2c(c1)OCO2`: the cell number change was -3.33%. Further, the AC50 under setting [2] is 6.51 µM [falling, single point].

On to `O=C(COC(=O)CCC(=O)c1ccc(F)cc1)Nc1nnc(-c2ccccc2)o1`, for which the cell number change was -5.72%. The half-maximal activity concentration (AC50) under setting [2] was 0.146 µM [falling, full curve, poor fit].

As for `CC(C)OC(=O)c1c2c(n3ccccc13)C(=O)c1ccccc1C2=O`, the cell number change is -59.7%. In addition, the half-maximal activity concentration (AC50) under setting [2] is 11.6 µM [falling, partial curve]. Besides, the AC50 under setting [1] is 2.91 µM [falling, full curve].

Take `O=C(CCCN1C(=O)c2ccccc2C1=O)N1CCc2ccccc2C1`: the AC50 runs as follows: under setting [2], 2.91 µM [rising, single point]; under setting [1], 4.11 µM [rising, single point].

In the case of `COc1ccc(C2N=C(N)N=C(N)N2c2ccc(C)cc2)cc1` (stereo unspecified), the cell number change is -33.9%. Besides, under setting [2], the AC50 is 1.46 µM [falling, partial curve, poor fit]. The AC50 under setting [1] is 4.61 µM [falling, partial curve].
